# Reference: publication PMC11020453
# By UniProt entry, the sequences of proteins in these tests, tags left out. Where a name states a change or a piece, a line headed by the entry shows the natural chain unless it says otherwise. Residues count along the entry.
# UniProt P01106: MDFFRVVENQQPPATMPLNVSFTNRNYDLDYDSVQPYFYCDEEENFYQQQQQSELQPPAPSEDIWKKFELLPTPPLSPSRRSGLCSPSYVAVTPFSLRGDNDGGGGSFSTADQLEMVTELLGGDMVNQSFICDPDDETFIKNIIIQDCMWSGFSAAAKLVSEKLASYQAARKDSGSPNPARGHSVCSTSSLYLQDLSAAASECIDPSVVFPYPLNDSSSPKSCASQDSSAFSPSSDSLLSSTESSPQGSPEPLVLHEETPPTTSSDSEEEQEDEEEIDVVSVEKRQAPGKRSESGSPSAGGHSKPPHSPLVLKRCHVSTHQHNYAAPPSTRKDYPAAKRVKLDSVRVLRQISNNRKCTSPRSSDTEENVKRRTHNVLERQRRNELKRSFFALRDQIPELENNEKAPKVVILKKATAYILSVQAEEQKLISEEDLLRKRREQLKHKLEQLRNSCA
# c-MYC deletion mutant lacking amino acids 422–454: residues 1-421 of P01106
# UniProt O75716: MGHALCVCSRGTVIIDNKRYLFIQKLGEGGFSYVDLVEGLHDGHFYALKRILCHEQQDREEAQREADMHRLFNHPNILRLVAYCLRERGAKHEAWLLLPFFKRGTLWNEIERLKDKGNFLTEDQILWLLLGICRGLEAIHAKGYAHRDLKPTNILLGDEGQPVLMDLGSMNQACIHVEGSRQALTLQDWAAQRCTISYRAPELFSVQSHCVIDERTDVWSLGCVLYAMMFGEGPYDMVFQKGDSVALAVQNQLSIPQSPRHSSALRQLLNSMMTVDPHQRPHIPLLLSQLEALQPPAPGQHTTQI
# No constants are given. Whether binding was seen depends on the method and setting. Binding seen in cells or lysates may run through a third protein. Some binding calls cover weakened binding; strength is not graded here.
# Key:
# [1] = target: c-MYC (MYC proto-oncogene) (human (endogenous in RKO and Lovo)) (UniProt P01106); assay: co-IP; lysates of RKO and Lovo cells; primary antibody pre-bound to Protein L magnetic beads (2 h, room temperature), lysate with beads overnight at 4 °C, three washes with PBS, western blot
# [2] = target: c-MYC deletion mutant lacking amino acids 422–454 (UniProt P01106); assay: co-IP; co-immunoprecipitation with c-MYC deletion mutants (Fig. 5D, E); cells and tags not told; primary antibody on Protein L magnetic beads, lysate overnight at 4 °C, three washes with PBS, western blot
binding [1],binding [2],Substance
binds,,STK16 (Serine/threonine kinase 16) (from UniProt O75716 1-305) (enzyme)
,no binding,STK16 (in the co-immunoprecipitations with c-MYC deletion mutants) (from UniProt O75716 1-305) (enzyme)
